{"source": "paper PMC7819943", "about": "“Rice protein-binding microarrays: a tool to detect cis-acting elements near promoter regions in rice”", "note": "Some of the results follow."}
{"biological_target": "T1, OsSMF1 (Oryza sativa, UniProt Q6ZLB0 1-436)", "T1 sequence": "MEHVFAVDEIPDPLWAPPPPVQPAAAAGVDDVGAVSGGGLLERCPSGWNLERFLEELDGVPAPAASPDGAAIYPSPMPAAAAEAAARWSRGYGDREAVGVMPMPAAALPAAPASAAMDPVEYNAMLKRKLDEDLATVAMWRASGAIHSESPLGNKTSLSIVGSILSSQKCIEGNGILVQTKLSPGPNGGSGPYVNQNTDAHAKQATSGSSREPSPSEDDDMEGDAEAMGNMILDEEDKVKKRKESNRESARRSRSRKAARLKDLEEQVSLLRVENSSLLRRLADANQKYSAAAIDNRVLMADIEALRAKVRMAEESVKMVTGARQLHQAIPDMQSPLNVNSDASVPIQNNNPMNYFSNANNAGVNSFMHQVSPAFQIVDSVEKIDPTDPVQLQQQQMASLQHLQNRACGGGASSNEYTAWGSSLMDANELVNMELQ", "assay": "protein-binding microarray (RPBM); PBS, 2% BSA, 51.3 ng/ul salmon testes DNA, 50 uM zinc acetate, 200 nM TF, 25 C, 1 h; high values mean tight binding", "settings": "protein: recombinant; tags: N-terminal polyhistidine and DsRed monomer fusion (pET32a); chain copies: 2; label: CyDye5-dUTP incorporated in the synthesized complementary strand; 3' TTTTT single-stranded linker to array surface; dsDNA, one strand shown", "procedure,_shortened": "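Transcription factors were made in E. coli BL21-CodonPlus as N-terminal fusions to a polyhistidine tag and DsRed, then purified on Ni–NTA. After primer extension with Cy5-dUTP and blocking with 2% BSA, a custom Agilent array was exposed for 1 h at 25 °C to 200 nM protein in PBS, 2% BSA, salmon testes DNA and 50 µM zinc acetate. Washed arrays were scanned on an Axon 4000B, and the binding signal is per-feature fluorescence intensity in arbitrary units.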"}
{"sequence": "CCACCACTGCATGCGTCACCCCTCTCTATCCCTACCGCCCCGGAGTCACCTAGTGCAG", "binding signal": "11600 fluorescence intensity (a.u.)"}
{"sequence": "TCGCACCTCCATTTCGCTACACGTACACGCCCTCCCACCGCGGAGTCACCTAGTGCAG", "binding signal": "4400 fluorescence intensity (a.u.)"}
{"sequence": "GCATGGGAGGAGGCCGGGAGGAGGAGGCGGCGGCGGCGGCCGGAGTCACCTAGTGCAG", "binding signal": "3760 fluorescence intensity (a.u.)"}
{"sequence": "CCTTTTGCCGGTGACAACGGCTCCACGTTGGTTTTGATTGCGGAGTCACCTAGTGCAG", "binding signal": "6280 fluorescence intensity (a.u.)"}
{"sequence": "CATGCCTTGACCACATGCATGCTGACGTGGCAATCTAATCCGGAGTCACCTAGTGCAG", "binding signal": "30800 fluorescence intensity (a.u.)"}
{"sequence": "GCACGGCCGGATCCCGCCGGCGCCGGCCACGATGAACGCGCGGAGTCACCTAGTGCAG", "binding signal": "3360 fluorescence intensity (a.u.)"}
{"sequence": "TTTCCAGCTCGCTCCGTTCCTCGTCGATCATGTCACGGGCCGGAGTCACCTAGTGCAG", "binding signal": "3800 fluorescence intensity (a.u.)"}
{"sequence": "CCCCTCCACTCGCCCTTCAATCTCCCACTGCCACCTCGGCCGGAGTCACCTAGTGCAG", "binding signal": "4120 fluorescence intensity (a.u.)"}
{"sequence": "GTTTATTACGTGGATCTGTGAATTTGTTCATTGTGGACCTCGGAGTCACCTAGTGCAG", "binding signal": "8770 fluorescence intensity (a.u.)"}
{"sequence": "CTTCCCAGGACTCTATCCATGCGTGGCAATCATCTTGAAGCGGAGTCACCTAGTGCAG", "binding signal": "7520 fluorescence intensity (a.u.)"}
{"sequence": "TGCACTAGCTGATGACGTTTGGCGTTTGGAGAAAATTGGGCGGAGTCACCTAGTGCAG", "binding signal": "4340 fluorescence intensity (a.u.)"}
{"sequence": "TCACGGTGGCTGAATAAATTATATGTTAACACGGAAGCCTCGGAGTCACCTAGTGCAG", "binding signal": "14600 fluorescence intensity (a.u.)"}
{"sequence": "TGCAAGGAAAATCCCTTGGTCAGGTATGACACTTGCTGTTCGGAGTCACCTAGTGCAG", "binding signal": "3800 fluorescence intensity (a.u.)"}
{"sequence": "CTTCGCGTGCGGTGTGCCGTGCGTGTATGTGACCACCGTCCGGAGTCACCTAGTGCAG", "binding signal": "4600 fluorescence intensity (a.u.)"}
{"sequence": "TTGGATATTAGTAGTAGATTGGCCAACATCACCATGTCAACGGAGTCACCTAGTGCAG", "binding signal": "3340 fluorescence intensity (a.u.)"}
{"sequence": "GCTGGGTTAGATTTATAAACGGGCCTCCTAGTCTATTCTGCGGAGTCACCTAGTGCAG", "binding signal": "3480 fluorescence intensity (a.u.)"}
{"sequence": "AACAGTTATTAGTCAACTGATGGTGCCATGTCATACGGTGCGGAGTCACCTAGTGCAG", "binding signal": "11300 fluorescence intensity (a.u.)"}
{"sequence": "CTTCCTGAACTGTTGATCAGATTGTGTGCATGTATGTATGCGGAGTCACCTAGTGCAG", "binding signal": "3270 fluorescence intensity (a.u.)"}
{"sequence": "CCGAAATCCCGTACTTCCCACTGACACGTAGGCCCCACTGCGGAGTCACCTAGTGCAG", "binding signal": "8290 fluorescence intensity (a.u.)"}
{"sequence": "TATCCATAAGATACAGATGACTCATCTTCTGATGTTCCATCGGAGTCACCTAGTGCAG", "binding signal": "12000 fluorescence intensity (a.u.)"}
{"sequence": "TGCTGCCTTTATCATCACCAAGAGCCACTACCTTGCCTTACGGAGTCACCTAGTGCAG", "binding signal": "4370 fluorescence intensity (a.u.)"}
{"sequence": "TCCACGCCGATCCGTCTCTCCTCGTCACCGCCGTGCAGAGCGGAGTCACCTAGTGCAG", "binding signal": "6270 fluorescence intensity (a.u.)"}
{"sequence": "CCGCTCCGGTGATCGGATCCCCACAGCTTTGCGTTTGCACCGGAGTCACCTAGTGCAG", "binding signal": "17200 fluorescence intensity (a.u.)"}
{"sequence": "TCCGAGTTCCGTCGGCGTCCGCTCGTCTGTTCCGTTGGTGCGGAGTCACCTAGTGCAG", "binding signal": "3290 fluorescence intensity (a.u.)"}
{"sequence": "ACCTTCACGCAGCGGCCTCTCCCCGTGCGCCGCCGTGGCGCGGAGTCACCTAGTGCAG", "binding signal": "4260 fluorescence intensity (a.u.)"}
{"sequence": "TTGTGTGTGTGTATCCCCTGTGACACAGTCGTAATCGATGCGGAGTCACCTAGTGCAG", "binding signal": "5200 fluorescence intensity (a.u.)"}
{"sequence": "TGTTTAAGTTTGGTGATTTCAATTCTGACCTGTAAATTGTCGGAGTCACCTAGTGCAG", "binding signal": "3450 fluorescence intensity (a.u.)"}
{"sequence": "CTCACGAGGGGAGAGGGGAGCACGTGGGCATGGCTGGCACCGGAGTCACCTAGTGCAG", "binding signal": "4210 fluorescence intensity (a.u.)"}
{"sequence": "GCAAGTATAACTCTGCTTCCTTCTAATATATTGACGTGTTCGGAGTCACCTAGTGCAG", "binding signal": "6260 fluorescence intensity (a.u.)"}
{"sequence": "CCTGCCAATCCCGCCACGTTCTTGCGGCCCAGCCATCCATCGGAGTCACCTAGTGCAG", "binding signal": "4220 fluorescence intensity (a.u.)"}
{"sequence": "GTAATAGAAGCATGGGACCTATACACCAGTTGATTATAATCGGAGTCACCTAGTGCAG", "binding signal": "25600 fluorescence intensity (a.u.)"}
{"sequence": "CACTGTCCATCCATGGTGGTGGTCAGACAACCCCAGCACACGGAGTCACCTAGTGCAG", "binding signal": "3990 fluorescence intensity (a.u.)"}
{"sequence": "GCGACGCATGGACATGTCGCGAGGGCGGGCCGGCCCGTCCCGGAGTCACCTAGTGCAG", "binding signal": "4540 fluorescence intensity (a.u.)"}
{"sequence": "AGAGAGTGCTGGGGTGGATGGCGACGATGGCGTGACGGAGCGGAGTCACCTAGTGCAG", "binding signal": "5390 fluorescence intensity (a.u.)"}
{"sequence": "GCTACTATCCAAAACAAATGTGCTACTAAAATGAGGTTGACGGAGTCACCTAGTGCAG", "binding signal": "16900 fluorescence intensity (a.u.)"}
{"sequence": "TCAGTTTCATCCGACGGTTCTCGTATTTTAGATGATGTGGCGGAGTCACCTAGTGCAG", "binding signal": "10800 fluorescence intensity (a.u.)"}
{"sequence": "AATTCTGATAAAATAGGGTTACTAAAAGGTTGACGTTTCACGGAGTCACCTAGTGCAG", "binding signal": "3250 fluorescence intensity (a.u.)"}
{"sequence": "CGCGGACCGGCGTGGCCTCGCCGGCCCCGGGCAATGTCCCCGGAGTCACCTAGTGCAG", "binding signal": "3470 fluorescence intensity (a.u.)"}
{"sequence": "CCGTTAGCCTCCAACGATCCAAACCGCCTCGTCATAAATACGGAGTCACCTAGTGCAG", "binding signal": "3460 fluorescence intensity (a.u.)"}
{"sequence": "ACGTGTGGTTGGTGACACCGAGATCCCGTGTTTAATCCCCCGGAGTCACCTAGTGCAG", "binding signal": "4270 fluorescence intensity (a.u.)"}
{"sequence": "ATTGGTATGGTATATTCATACCATAACATAAGAACAATAACGGAGTCACCTAGTGCAG", "binding signal": "21200 fluorescence intensity (a.u.)"}
{"sequence": "TTGGAGTCCGTGCTGCAGCTGGCTACAGATCTGTAGCCCGCGGAGTCACCTAGTGCAG", "binding signal": "37600 fluorescence intensity (a.u.)"}
{"sequence": "GAGCAGAGGTCGGCGTCGCGGAGGCCACAGGAGACGGCGACGGAGTCACCTAGTGCAG", "binding signal": "23700 fluorescence intensity (a.u.)"}
{"sequence": "TAATAGTTGGTCACGTCATATCCATTGCATGCAGCTCATCCGGAGTCACCTAGTGCAG", "binding signal": "5940 fluorescence intensity (a.u.)"}
{"sequence": "GCCGGCGCTGCCCGCAACCGATGCGTCACCCTCCTCACTACGGAGTCACCTAGTGCAG", "binding signal": "7720 fluorescence intensity (a.u.)"}
{"sequence": "GAAGGGGCGAGCAAGGAGGGGTGCCACGTAGGATAGCAATCGGAGTCACCTAGTGCAG", "binding signal": "6350 fluorescence intensity (a.u.)"}
{"sequence": "ACTGGCTTGAACCGTCATCGTCACGTGCTGCTGAAAAGGGCGGAGTCACCTAGTGCAG", "binding signal": "6550 fluorescence intensity (a.u.)"}
{"sequence": "CAAACGATCACCATAGTTGTCATCCTCTGTCACCATAGTTCGGAGTCACCTAGTGCAG", "binding signal": "5980 fluorescence intensity (a.u.)"}
{"sequence": "GTATTTTGCATATCAGCCCCTATCTATTTATATGTCAGCCCGGAGTCACCTAGTGCAG", "binding signal": "3630 fluorescence intensity (a.u.)"}
{"sequence": "TTTACCGGTACGACACCTGTGCAAGAACACGCCACGTCACCGGAGTCACCTAGTGCAG", "binding signal": "23000 fluorescence intensity (a.u.)"}
{"sequence": "CCTCCCACCACTGCGTCATCTCCAGATTCCCTTCTCCTGCCGGAGTCACCTAGTGCAG", "binding signal": "5140 fluorescence intensity (a.u.)"}
{"sequence": "AATATACACTTGATTAGTACTAATCAATCCAAAGCAATGACGGAGTCACCTAGTGCAG", "binding signal": "28400 fluorescence intensity (a.u.)"}
{"sequence": "GTAAATTGCGTCCACGGTATATAAACTTGGTAGGTGGGTGCGGAGTCACCTAGTGCAG", "binding signal": "3230 fluorescence intensity (a.u.)"}
{"sequence": "CTGCCGTTTGGTGGCACGCCCGGCGCTGACTCGGACGGCGCGGAGTCACCTAGTGCAG", "binding signal": "7670 fluorescence intensity (a.u.)"}
